Our source for the binding values is PMC7725506, “Functional Diversification of SRSF Protein Kinase to Control Ubiquitin-Dependent Neurodevelopmental Signaling” (Developmental Cell, 2020).

Sequences of proteins named here, by UniProt entry; tags and fusion partners are left off.
UniProt P22227: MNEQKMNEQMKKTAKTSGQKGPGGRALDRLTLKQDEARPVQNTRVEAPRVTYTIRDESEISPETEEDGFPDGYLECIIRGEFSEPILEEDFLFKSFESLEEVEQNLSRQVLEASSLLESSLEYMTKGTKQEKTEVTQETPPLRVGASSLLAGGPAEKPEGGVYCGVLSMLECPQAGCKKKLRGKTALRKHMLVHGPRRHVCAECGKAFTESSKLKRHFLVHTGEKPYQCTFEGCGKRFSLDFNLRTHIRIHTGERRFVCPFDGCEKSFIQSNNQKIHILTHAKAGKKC

Positions count from the first letter of the chain named. Names may count otherwise. No constants are given. Whether binding was seen depends on the method and setting. For part of these data: Binding seen in cells or lysates may run through a third protein. Some results given as binding are weak or reduced against the parent protein; the word gives no strength.

Assay [1] deals with REX1/ZFP42 transcription factor, endogenous in mESCs (mouse (endogenous in mESCs)) (UniProt P22227). The experiment in a line: co-IP; lysates of WT, Rlim-/y, RNF12 WT-KI, 4xSA-KI, ΔSR-KI and W576Y-KI mESCs treated with 10 μM MG132 for 6 h; protein A or G beads with 2 μg antibody in lysis buffer overnight at 4°C; washed three times with lysis buffer supplemented with 500 μM NaCl (so in the source); immunoblotting for RNF12 and REX1; which protein was precipitated is not told. Background: A western blot detects proteins with antibodies after separation by electrophoresis.

The target in assay [2] is GST-REX1, recombinant (UniProt P22227). In words: pull-down; 0.5 μg RNF12 incubated with WT or kinase dead SRPK1 or SRPK2 and 2 mM ATP for 1 h at 37°C, ATP depleted with apyrase, mixed with 0.5 μg GST-REX1 in 500 μl GST pulldown buffer (10 mM Tris pH 8.0, 150 mM NaCl, 10% glycerol, 0.1% Triton X-100) overnight at 4°C; GSH Sepharose 4B beads 2 h at 4°C; immunoblotting; both purified.

B1: RNF12 4xSA (S212A/S214A/S227A/S229A), knock-in in mESCs (protein, UniProt Q9WTV7 1-600)
chain: MENSDSNDKGSDQSAAQRRSQMDRLDREEAFYQFVNNLSEEDYRLMRDNNLLGTPGESTEEELLRRLQQIKEGPPPQSPDENRAGESSDDVTNSDSIIDWLNSVRQTGNTTRSGQRGNQSWRAVSRTNPNSGDFRFSLEINVNRNNGSQTSENESEPSTRRLSVENMESSSQRQMENSASESASARPSRAERNSAEAVTEVPTTRAQRRARARAPEHRRTRARAERARAPLQPTSEIPRRAPTLEQSSENEPEGSSRTRHHVTLRQQISGPELLGRGLFAASGSRNPSQGTSSSDTGSNSESSGSGQRPPTIVLDLQVRRVRPGEYRQRDSIASRTRSRSQAPNNTVTYESERGGFRRTFSRSERAGVRTYVSTIRIPIRRILNTGLSETTSVAIQTMLRQIMTGFGELSYFMYSDSDSEPSASVSSRNVERVESRNGRGSSGGGNSSGSSSSSSPSPSSSGESSESSSEMFEGSSEGGSSGPSRRDGRHRAPVTFDESGSLPFLSLAQFFLLNEDDEDQPRGLTKEQIDNLAMRSFGENDALKTCSVCITEYTEGNKLRKLPCSHEYHVHCIDRWLSENSTCPICRRAVLSSGNRESVV
For the molecule B1, the binding result in assay [1] is listed as “binds”.

B2: Recombinant RNF12, unphosphorylated (incubated with kinase dead SRPK1 or SRPK2) (protein, UniProt Q9WTV7 1-600)
chain: B1 chain with A212S, A214S, A227S, A229S
With B2, in assay [2], the binding entry is “binds”.

B3: RNF12 ΔSR (residues 206-229 of the SR-motif deleted), knock-in in mESCs (protein, UniProt Q9WTV7)
chain: MENSDSNDKGSDQSAAQRRSQMDRLDREEAFYQFVNNLSEEDYRLMRDNNLLGTPGESTEEELLRRLQQIKEGPPPQSPDENRAGESSDDVTNSDSIIDWLNSVRQTGNTTRSGQRGNQSWRAVSRTNPNSGDFRFSLEINVNRNNGSQTSENESEPSTRRLSVENMESSSQRQMENSASESASARPSRAERNSAEAVTEVPTTRPLQPTSEIPRRAPTLEQSSENEPEGSSRTRHHVTLRQQISGPELLGRGLFAASGSRNPSQGTSSSDTGSNSESSGSGQRPPTIVLDLQVRRVRPGEYRQRDSIASRTRSRSQAPNNTVTYESERGGFRRTFSRSERAGVRTYVSTIRIPIRRILNTGLSETTSVAIQTMLRQIMTGFGELSYFMYSDSDSEPSASVSSRNVERVESRNGRGSSGGGNSSGSSSSSSPSPSSSGESSESSSEMFEGSSEGGSSGPSRRDGRHRAPVTFDESGSLPFLSLAQFFLLNEDDEDQPRGLTKEQIDNLAMRSFGENDALKTCSVCITEYTEGNKLRKLPCSHEYHVHCIDRWLSENSTCPICRRAVLSSGNRESVV
Turning to B3, the binding result in assay [1] is listed as “binds”.
